Assay results: PubChem BioAssay AID2551 (National Center for Advancing Translational Sciences (NCATS), 2010)
Hit rate of the full screen: of about 310,000 compounds, about 17,000 (5.5%) were called active. Inconclusive means that the source gave no clear call. Such entries were picked first, then a sample of the others. Calls follow the shape of the dose curve; as a rule, active = well fitted inhibition curve with a large enough effect; inconclusive = small, poorly fitted or top-dose-only effect, or effect the other way; inactive = no such curve, though single readings can be large or run the other way. Potencies of inconclusive entries are doubtful fits and often do not repeat.

By UniProt entry, the sequences of proteins in these tests, tags left out. Where a name states a change or a piece, a line headed by the entry shows the natural chain unless it says otherwise.
UniProt P51450: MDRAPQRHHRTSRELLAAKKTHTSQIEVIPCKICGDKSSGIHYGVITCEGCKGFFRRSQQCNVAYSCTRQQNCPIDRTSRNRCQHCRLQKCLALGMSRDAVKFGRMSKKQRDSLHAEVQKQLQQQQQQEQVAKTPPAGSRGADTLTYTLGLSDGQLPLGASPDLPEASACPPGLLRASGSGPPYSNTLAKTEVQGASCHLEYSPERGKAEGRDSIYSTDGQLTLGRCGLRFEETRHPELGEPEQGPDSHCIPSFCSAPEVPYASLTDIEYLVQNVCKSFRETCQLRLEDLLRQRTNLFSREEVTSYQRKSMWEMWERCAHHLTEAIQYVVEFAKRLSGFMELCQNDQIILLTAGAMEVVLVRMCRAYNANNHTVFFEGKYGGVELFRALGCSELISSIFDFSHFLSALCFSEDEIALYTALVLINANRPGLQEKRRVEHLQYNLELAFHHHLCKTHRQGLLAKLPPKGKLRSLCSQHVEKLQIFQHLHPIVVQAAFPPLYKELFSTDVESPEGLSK

target: Nuclear receptor ROR-gamma (Mus musculus) (UniProt P51450); assay: qHTS for inhibitors of ROR gamma transcriptional activity; details: Drosophila S2 Gal4-RORgamma UAS-luciferase reporter, 20 h; series mostly up to 53.6 µM; also: nearly all actives have a fitted effect of over 60% in size
Method in brief: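 Stable Schneider cell line, Gal4 DNA-binding domain fused to ROR gamma, UAS-luciferase. Cmpd 1 hr RT → CuSO4 700 uM final → 20 hr RT → luciferase reagent 10 min → luminescence.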
Potency is read from the fitted curve at half-maximal effect.

Potency, inactive:
COc1ccccc1/C=C1\SC(=S)N(CCC(=O)Nc2nnc(C)s2)C1=O
CCc1n[nH]c(=S)n1/N=C/c1cc(Br)c(O)c(OC)c1
CC(C)(C)c1cc(C(=O)NC2CC2)n(Cc2ccc(F)cc2)n1
COc1cccc(N(CC(=O)Nc2ccccc2C)S(C)(=O)=O)c1
CCc1ccc(N(C(=O)c2csnn2)C(C(=O)NC2CCCCC2)c2cccnc2)cc1 (stereo unspecified)
Cc1noc(C)c1C(=O)Nc1cccc2ncccc12
O=C1CCN(Cc2ccc([N+](=O)[O-])cc2)CCN1CCO
CC1Oc2ccccc2C=C1/C=N\NC(=O)c1cccnc1 (stereo unspecified)
CCOC(=O)c1[nH]c2ccccc2c1NC(=O)c1ccc(S(=O)(=O)N2CCCCC2)cc1
Cc1ccc(CSc2ccc(-c3ccc4c(c3)OCO4)nn2)cc1
C=CCn1c(SCC(=O)NC2CC2)nnc1-c1cccs1
O=C(Oc1ccc(-c2ccccc2)cc1)N1CCCCC1
CCOC(=O)C1(CCCc2ccccc2)CCN(C(=O)c2cnn(CC)c2)CC1
CCOC(=O)c1c(-c2ccc(OC)cc2)csc1NC(=O)CCN1C(=O)c2ccccc2C1=O
COc1cccc(N2CCN(C(=O)CN(C)S(=O)(=O)c3ccc4c(c3)CCC(=O)N4)CC2)c1
CNc1cc(-c2ccccc2C)ncn1
Cc1cc(C)cc(-n2c(N)c(C(=O)Nc3c(C)n(C)n(-c4ccccc4)c3=O)c3nc4ccccc4nc32)c1
COc1cc(/C=C(\C#N)C(=O)NCC2CCCO2)cc(OC)c1OC (stereo unspecified)
COc1cccc(CNC(=O)CCC2CCCN(C(=O)c3cscn3)C2)c1 (stereo unspecified)
O=C(Nc1cccc2ccccc12)c1ccccc1
COC(=O)[C@@]1(Cc2ccc(OC)cc2)[C@H]2c3cc(C(=O)N4CCCC4)n(CCc4ccc(O)c(OC)c4)c3C[C@H]2CN1C(=O)c1ccccc1
Cc1cccc(C)c1NC(=O)CCCN1CC(C)OC(C)C1 (stereo unspecified)
O=S(=O)(c1cc(Cl)ccc1Cl)n1cccn1
CCOC(=O)c1cc(-c2ccccc2)sc1NC(=O)C(C)N1C(=O)NC(C)(c2ccc(Cl)cc2)C1=O (stereo unspecified)
CNC(=O)[C@H](C)/C=C(\c1cccnc1)C(NC(=O)OCc1ccccc1)c1ccc(C(=O)OC)cc1 (stereo partly specified)
O=c1[nH]n(-c2cccc3cccnc23)c(=O)c2ccccc12

Six entries from above, arranged by formula weight, low to high:
Potency, inactive:
Cc1noc(C)c1C(=O)Nc1cccc2ncccc12
O=C1CCN(Cc2ccc([N+](=O)[O-])cc2)CCN1CCO
C=CCn1c(SCC(=O)NC2CC2)nnc1-c1cccs1
COc1ccccc1/C=C1\SC(=S)N(CCC(=O)Nc2nnc(C)s2)C1=O
CCc1ccc(N(C(=O)c2csnn2)C(C(=O)NC2CCCCC2)c2cccnc2)cc1 (stereo unspecified)
CNC(=O)[C@H](C)/C=C(\c1cccnc1)C(NC(=O)OCc1ccccc1)c1ccc(C(=O)OC)cc1 (stereo partly specified)

Next part:

Potency, active:
O=C(Nc1nc2ccccc2[nH]1)c1ccc(Cl)c(S(=O)(=O)N2CCCC2)c1 6.31 µM
Cc1c(Cl)cccc1NC(=S)NCCc1ccc(F)cc1 4.47 µM
O=c1c2c(nc3c(-c4ccccc4)c[nH]n13)CCC2 6.31 µM
CN(C)c1nc(=Nc2cccc(Cl)c2)ss1 0.398 µM
CC(C)(C)OC(=O)[C@H](Cc1ccccc1)NC(=O)c1[nH]cnc1C(=O)N[C@@H](Cc1ccccc1)C(=O)OCc1ccccc1 7.08 µM
CCCn1c(=O)c(C(=O)NCc2ccccn2)c(O)c2ccccc21 10 µM
Cc1ccc(C(=O)Nc2nc(COc3ccccc3)cs2)s1 10 µM
Cc1cc(Nc2cccc(Cl)c2Cl)n2ncnc2n1 12.6 µM
O=C(NNc1nc2c(F)cc(F)cc2s1)C1=COCCO1 8.91 µM
Cc1cccc(C(=O)Oc2ccc(/C=N/O)cc2)c1 5.62 µM
C/C(=N/NC(=O)c1ccc(O)cc1)c1cccc([N+](=O)[O-])c1 3.16 µM
Cc1ccc(NC(=O)c2csc(-c3ccccc3)c2C)cc1 2 µM
COCCNC(=S)NC12CC3CC(CC(C3)C1)C2 3.55 µM

Potency, inconclusive:
O=C(CSC(=S)N1CCCC1)c1cc(Br)cc(Br)c1O 17.8 µM [inhibitor, single point]
Cc1ccccc1SC1CCN(Cc2nc(C3CC3)no2)CC1 2.82 µM [activator, full curve]
C=CCNC(=O)c1c(N)n(-c2cccc(S(N)(=O)=O)c2)c2nc3ccccc3nc12 17.8 µM [activator, single point]
CC(NC(=O)CSc1nc2ccc(N)cc2s1)c1ccccc1 (stereo unspecified) 14.1 µM [activator, partial curve]
O=C(COc1cc(O)c2c(=O)cc(-c3ccccc3)oc2c1)c1cccc([N+](=O)[O-])c1 1.12 µM [activator, single point]
Cc1ccccc1NC(=S)N/N=C/c1ccc(O)cc1O 22.4 µM [inhibitor, single point]
Cc1cc2c(=O)n(Cc3ccco3)c(SCC(=O)c3ccc(Cl)s3)nc2s1 35.5 µM [inhibitor, single point]
CCOC(=O)C(NC(=O)c1cccc(Cl)c1)(OCc1ccc(F)cc1)C(F)(F)F (stereo unspecified) 35.5 µM [inhibitor, single point]
CC(C)(C)c1ccc(COc2ccsc2C(=O)O)cc1 6.31 µM [inhibitor, single point]
CCOC(=O)c1cc(C)[nH]c(=S)c1C#N 22.4 µM [inhibitor, single point]
O=C(CSc1ncn[nH]1)c1cccc([N+](=O)[O-])c1 35.5 µM [inhibitor, single point]
O=C(Nc1cccc(Cl)c1)c1cccnn1 14.1 µM [activator, single point]
COc1ccccc1N1CCN(C(=O)Nc2ccc([N+](=O)[O-])cc2)CC1 12.6 µM [activator, single point]
Cn1c(=O)n(CCc2ccccc2)c(=O)c2c1nc1n2CCN1Cc1ccco1 8.91 µM [activator, partial curve]
CSc1nccc(NC(=O)c2ccc(C(C)(C)C)cc2)n1 3.16 µM [inhibitor, single point]
COc1ccc2nc(NC(=O)CSc3nccc(C)n3)sc2c1 20 µM [activator, single point]
Cc1nc([N+](=O)[O-])c(C(=O)OCc2ccccc2)n1C 11.2 µM [activator, partial curve]
Cn1c(CCN2CCN(c3ccc(F)cc3)CC2)nc2cc(NC(=O)c3ccco3)ccc21 15.8 µM [activator, partial curve]
CCOC(=O)c1[nH]c2ccc(OC)cc2c1NC(=S)N1CCN(c2ccccc2OC)CC1 5.62 µM [activator, single point]
COc1ccc(N2CCN(C(=S)Nc3ccccc3OC)CC2)cc1 5.01 µM [inhibitor, partial curve, poor fit]
Cc1nnc(SCC(=O)NCc2ccco2)n1-c1ccc(F)cc1 6.31 µM [activator, single point]
COc1ccc(NC(=O)CC2C(=O)N(C)C(=S)N2CCc2ccc(F)cc2)cc1 (stereo unspecified) 15.8 µM [activator, single point]
O=C(CCCN1C(=O)/C(=C/c2ccccc2)SC1=S)Nc1cccc(O)c1 1.41 µM [inhibitor, full curve]
COc1ccc(CCN2C(=O)c3[nH]nc(-c4ccccc4O)c3C2c2cccc(Cl)c2)cc1 (stereo unspecified) 35.5 µM [inhibitor, single point]
COc1cccc(-c2nc(-c3ccccc3)nc(N3CCN(C)CC3)c2C#N)c1 17.8 µM [inhibitor, single point]
CCCOc1ccc(-c2nn(-c3ccccc3)cc2/C=C2\SC(N)=NC2=O)cc1C 11.2 µM [activator, partial curve]
OCCCNc1nc(-c2ccc(Cl)cc2)nnc1-c1ccccc1 10 µM [activator, partial curve]
COc1ccc(-c2cc(C(=O)Oc3ccc([N+](=O)[O-])cc3)c3ccccc3n2)cc1 11.2 µM [inhibitor, single point]
CC1CN(S(=O)(=O)Cc2ccccc2)CC(C)O1 (stereo unspecified) 0.0316 µM [inhibitor, full curve, poor fit]
COc1ccc(C2CC(c3ccc(OC)c(OC)c3)=NN2S(C)(=O)=O)cc1 (stereo unspecified) 15.8 µM [activator, partial curve, poor fit]
FC(F)(F)COc1cc(-c2nnc(SCc3ccccc3)n2Cc2ccco2)cc(OCC(F)(F)F)n1 11.2 µM [activator, partial curve, poor fit]
CCOc1ccc(-c2cc(C(=O)N/N=C(\C)c3cccnc3)c3ccccc3n2)c(OCC)c1 35.5 µM [inhibitor, single point]
CCOC(=O)CN(C(=O)CSc1nnc(COc2ccc(OC)cc2)n1CC)c1ccccc1 35.5 µM [activator, single point]
c1ccc(CCCc2nc(-c3cccnc3)no2)cc1 35.5 µM [activator, single point]
O=C(Cn1nnc2ccccc2c1=O)Nc1ccc2c(c1)CCC2 12.6 µM [activator, partial curve]
Cc1ccc(NC(=O)c2ccccc2Cl)c(Cl)c1 3.98 µM [activator, full curve, poor fit]
Cc1ccc(NC(=O)c2cnc(N3CCN(c4ccccn4)CC3)c3ccccc23)c(Br)c1 15.8 µM [activator, single point]
